This experiment has as its target T1, Snf7-VC (yeast ESCRT-III subunit Snf7p fused to the Venus C-terminal fragment) (S. cerevisiae), P39929.
T1 chain: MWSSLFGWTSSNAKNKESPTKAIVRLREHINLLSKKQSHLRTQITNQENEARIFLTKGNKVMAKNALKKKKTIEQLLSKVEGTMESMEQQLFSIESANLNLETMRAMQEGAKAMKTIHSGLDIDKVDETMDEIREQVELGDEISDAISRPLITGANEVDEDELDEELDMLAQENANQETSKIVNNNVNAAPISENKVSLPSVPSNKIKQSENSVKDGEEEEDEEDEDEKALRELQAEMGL
In words: split reporter. Conditions: remark: other sources report otherwise.

Results are given in words; binding and its absence hold for the method and conditions named. Binding seen in cells or lysates may run through a third protein. Some entries that bind do so weakly or less than the wild type. Where a sequence is shown, tags or fusion partners need not be part of it.

B1: Vps2-VN (yeast ESCRT-III subunit Vps2p fused to the Venus N-terminal fragment), P36108 1-232 (protein)
chain: MSLFEWVFGKNVTPQERLKKNQRALERTQRELEREKRKLELQDKKLVSEIKKSAKNGQVAAAKVQAKDLVRTRNYIQKFDNMKAQLQAISLRIQAVRSSDQMTRSMSEATGLLAGMNRTMNLPQLQRISMEFEKQSDLMGQRQEFMDEAIDNVMGDEVDEDEEADEIVNKVLDEIGVDLNSQLQSTPQNLVSNAPIAETAMGIPEPIGAGSEFHGNPDDDLQARLNTLKKQT
As to B1, the binding result is “binds”.

(Values after paper doi:10.1101/2025.07.21.665852.)
